Source: paper PMC5788269
No constants are given. Whether binding was seen depends on the method and setting. In cells and extracts the contact can be indirect. Here binding means that the protein was enriched with, or labelled near, the bait; the list need not be complete. Sequences can lack the tags named with a protein.

By UniProt entry, the sequences of proteins in these tests, tags left out.
UniProt P32598: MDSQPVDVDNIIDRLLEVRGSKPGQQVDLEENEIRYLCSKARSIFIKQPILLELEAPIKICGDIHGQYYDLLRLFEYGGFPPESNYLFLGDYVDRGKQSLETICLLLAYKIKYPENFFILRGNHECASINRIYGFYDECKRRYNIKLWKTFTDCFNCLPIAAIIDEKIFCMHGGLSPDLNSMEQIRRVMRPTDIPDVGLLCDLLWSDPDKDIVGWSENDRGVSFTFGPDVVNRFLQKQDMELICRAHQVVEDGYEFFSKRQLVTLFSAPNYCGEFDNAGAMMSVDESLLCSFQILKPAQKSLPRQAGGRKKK
UniProt P29468: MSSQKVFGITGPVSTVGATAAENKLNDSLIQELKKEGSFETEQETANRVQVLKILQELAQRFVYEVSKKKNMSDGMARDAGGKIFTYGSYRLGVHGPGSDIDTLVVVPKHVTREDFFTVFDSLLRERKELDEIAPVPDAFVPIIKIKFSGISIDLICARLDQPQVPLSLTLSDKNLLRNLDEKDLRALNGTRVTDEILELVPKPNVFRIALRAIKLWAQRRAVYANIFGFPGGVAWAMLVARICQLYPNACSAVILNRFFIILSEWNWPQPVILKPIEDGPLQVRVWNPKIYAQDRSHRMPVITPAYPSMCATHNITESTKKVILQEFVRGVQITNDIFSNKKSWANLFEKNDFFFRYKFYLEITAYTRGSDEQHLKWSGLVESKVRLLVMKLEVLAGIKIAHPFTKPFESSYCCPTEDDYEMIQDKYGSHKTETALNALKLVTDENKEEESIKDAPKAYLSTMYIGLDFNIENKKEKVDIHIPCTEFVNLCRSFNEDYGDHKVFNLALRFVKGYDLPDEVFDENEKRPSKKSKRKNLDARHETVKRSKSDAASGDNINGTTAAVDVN
UniProt P53538: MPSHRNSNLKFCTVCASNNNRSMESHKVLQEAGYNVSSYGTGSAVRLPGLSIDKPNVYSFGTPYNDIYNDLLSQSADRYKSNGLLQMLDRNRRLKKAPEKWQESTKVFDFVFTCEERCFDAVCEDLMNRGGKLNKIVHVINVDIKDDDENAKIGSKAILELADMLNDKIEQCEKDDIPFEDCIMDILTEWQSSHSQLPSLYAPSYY

Molecular target: T1, Ref2, TAPS-tagged (native CPF/APT subunit) (yeast) (UniProt P42073)
T1 sequence: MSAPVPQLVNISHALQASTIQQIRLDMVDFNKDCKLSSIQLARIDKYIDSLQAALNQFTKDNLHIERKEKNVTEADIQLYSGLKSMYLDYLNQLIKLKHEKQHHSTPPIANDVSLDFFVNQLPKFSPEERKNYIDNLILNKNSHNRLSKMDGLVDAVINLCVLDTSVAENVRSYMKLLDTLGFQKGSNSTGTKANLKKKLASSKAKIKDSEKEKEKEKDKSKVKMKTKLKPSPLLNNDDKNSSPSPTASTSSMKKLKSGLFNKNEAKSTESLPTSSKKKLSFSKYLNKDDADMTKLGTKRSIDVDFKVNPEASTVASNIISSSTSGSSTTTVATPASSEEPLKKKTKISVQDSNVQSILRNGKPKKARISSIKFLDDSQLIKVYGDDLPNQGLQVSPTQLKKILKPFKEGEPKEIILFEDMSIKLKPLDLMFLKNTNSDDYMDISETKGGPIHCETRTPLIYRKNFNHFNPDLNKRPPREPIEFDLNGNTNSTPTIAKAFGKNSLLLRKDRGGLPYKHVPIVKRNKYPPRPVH
Experiment: affinity purification with mass spectrometry; native CPF/APT purified by a tandem affinity purification tag from a yeast strain containing TAPS-tagged Ref2; Coomassie SDS-PAGE; composition analysed by noncovalent nanoESI-MS

binding	Substance
binds	Glc7 (native CPF/APT subunit) (from UniProt P32598 1-312) (enzyme)
binds	Pap1 (native CPF subunit) (from UniProt P29468 1-568) (enzyme)
binds	Ssu72 (native CPF/APT subunit) (from UniProt P53538 1-206) (enzyme)
